The source of these data is article PMC12738788, “Structural snapshots of Pseudomonas aeruginosa LptB2FG and LptB2FGC reveal insights into lipopolysaccharide recognition and transport” (Nature Communications, 2025).

Amino acid sequences for entries named in this document (tags omitted). A change or cut given only in a name is not applied to a line headed by its entry.
UniProt Q9HXH5: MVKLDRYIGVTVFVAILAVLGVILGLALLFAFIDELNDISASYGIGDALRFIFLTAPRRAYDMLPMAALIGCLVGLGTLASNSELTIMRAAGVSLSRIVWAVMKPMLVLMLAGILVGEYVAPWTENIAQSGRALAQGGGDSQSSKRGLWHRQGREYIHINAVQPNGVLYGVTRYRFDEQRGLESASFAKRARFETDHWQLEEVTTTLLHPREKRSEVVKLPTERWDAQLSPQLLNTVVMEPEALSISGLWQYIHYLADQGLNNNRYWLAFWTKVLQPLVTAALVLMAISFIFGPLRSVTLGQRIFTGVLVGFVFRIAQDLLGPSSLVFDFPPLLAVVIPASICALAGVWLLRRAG
UniProt Q9HXH4: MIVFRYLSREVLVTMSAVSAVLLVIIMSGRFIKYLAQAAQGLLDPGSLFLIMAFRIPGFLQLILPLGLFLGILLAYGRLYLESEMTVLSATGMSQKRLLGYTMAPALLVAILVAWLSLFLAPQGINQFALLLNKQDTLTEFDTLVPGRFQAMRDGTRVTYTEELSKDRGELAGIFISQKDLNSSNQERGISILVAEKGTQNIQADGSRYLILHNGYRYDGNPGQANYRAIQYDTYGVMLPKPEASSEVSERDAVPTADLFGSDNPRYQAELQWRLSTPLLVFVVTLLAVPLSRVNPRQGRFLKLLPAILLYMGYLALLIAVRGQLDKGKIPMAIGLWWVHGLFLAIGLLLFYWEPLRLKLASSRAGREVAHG

Results are given in words; binding and its absence hold for the method and conditions named. Binding seen in cells or lysates may run through a third protein. Binding calls can cover weak binding; strength is not graded here.

The target in the test is P. aeruginosa LptG (P. aeruginosa) (UniProt Q9HXH5). In words: cryo-EM structure; LptB2FG/LptB2FGC co-expressed, co-purified and delipidated, reconstituted in MSP1D1 nanodiscs with E. coli total extract lipid; 20 mM Tris-HCl pH 7.5, 100 mM NaCl; substrate-free; three LptB2FG and two LptB2FGC conformations from one sample; both purified.

As for “P. aeruginosa LptF (from UniProt Q9HXH4)”, the binding result was “binds”.
